Measurements as given in the supplement of paper PMC12819154, “High-throughput peptide-centric local stability assay extends protein–ligand identification to membrane proteins, tissues and bacteria” (Nature Structural & Molecular Biology, 2025).
This is one part of the list. Most entries show no effect beyond the scatter of the controls.

Protein sequences, listed by entry. Tags and fused reporters are not part of them. Lines headed by an entry give the natural chain unless they say otherwise; changes in a name come on top.
UniProt P69423: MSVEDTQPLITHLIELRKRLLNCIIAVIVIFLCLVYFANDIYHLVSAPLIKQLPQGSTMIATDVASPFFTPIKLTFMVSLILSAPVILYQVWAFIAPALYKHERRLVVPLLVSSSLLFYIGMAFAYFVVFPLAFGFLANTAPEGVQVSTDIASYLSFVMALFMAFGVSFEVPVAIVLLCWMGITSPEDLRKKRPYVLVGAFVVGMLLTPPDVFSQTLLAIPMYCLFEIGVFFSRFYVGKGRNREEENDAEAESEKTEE
UniProt P46890: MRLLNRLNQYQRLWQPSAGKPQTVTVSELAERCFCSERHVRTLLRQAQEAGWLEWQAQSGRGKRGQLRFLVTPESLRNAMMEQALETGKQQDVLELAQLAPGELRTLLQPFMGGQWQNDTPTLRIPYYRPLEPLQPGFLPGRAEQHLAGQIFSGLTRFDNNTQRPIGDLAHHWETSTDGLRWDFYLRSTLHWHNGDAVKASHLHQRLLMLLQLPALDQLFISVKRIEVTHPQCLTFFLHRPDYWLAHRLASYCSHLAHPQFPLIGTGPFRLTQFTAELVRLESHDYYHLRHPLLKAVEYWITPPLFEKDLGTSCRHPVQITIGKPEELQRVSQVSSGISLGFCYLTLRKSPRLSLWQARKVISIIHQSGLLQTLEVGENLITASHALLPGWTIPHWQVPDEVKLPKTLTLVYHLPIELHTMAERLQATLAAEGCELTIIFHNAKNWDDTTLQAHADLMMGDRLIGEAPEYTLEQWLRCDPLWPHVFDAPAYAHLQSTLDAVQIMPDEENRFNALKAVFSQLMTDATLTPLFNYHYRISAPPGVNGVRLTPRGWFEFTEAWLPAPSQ
UniProt P52101: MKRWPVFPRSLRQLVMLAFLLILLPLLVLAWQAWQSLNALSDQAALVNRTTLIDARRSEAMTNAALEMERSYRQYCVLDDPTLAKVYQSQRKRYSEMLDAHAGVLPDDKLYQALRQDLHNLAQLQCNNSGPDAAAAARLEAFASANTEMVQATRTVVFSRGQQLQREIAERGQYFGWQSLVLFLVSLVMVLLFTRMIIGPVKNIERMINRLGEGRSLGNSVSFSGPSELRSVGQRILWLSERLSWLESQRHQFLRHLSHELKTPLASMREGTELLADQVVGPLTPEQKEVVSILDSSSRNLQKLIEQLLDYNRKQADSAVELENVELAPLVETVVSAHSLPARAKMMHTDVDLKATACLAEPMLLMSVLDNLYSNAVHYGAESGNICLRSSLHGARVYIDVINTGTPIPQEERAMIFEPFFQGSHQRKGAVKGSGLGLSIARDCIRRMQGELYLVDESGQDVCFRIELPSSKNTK
UniProt P52097: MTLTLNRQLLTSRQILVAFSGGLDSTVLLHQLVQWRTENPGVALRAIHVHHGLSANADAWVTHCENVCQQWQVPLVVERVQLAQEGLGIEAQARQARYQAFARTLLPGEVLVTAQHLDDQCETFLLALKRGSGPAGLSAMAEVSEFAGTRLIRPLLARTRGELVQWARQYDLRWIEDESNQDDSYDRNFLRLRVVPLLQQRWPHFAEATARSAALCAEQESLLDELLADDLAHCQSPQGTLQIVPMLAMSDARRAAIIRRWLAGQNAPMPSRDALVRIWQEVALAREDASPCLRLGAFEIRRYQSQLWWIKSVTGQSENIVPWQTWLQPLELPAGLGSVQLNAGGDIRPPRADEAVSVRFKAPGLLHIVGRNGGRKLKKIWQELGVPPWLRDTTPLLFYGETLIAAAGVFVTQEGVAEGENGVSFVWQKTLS
UniProt P75691: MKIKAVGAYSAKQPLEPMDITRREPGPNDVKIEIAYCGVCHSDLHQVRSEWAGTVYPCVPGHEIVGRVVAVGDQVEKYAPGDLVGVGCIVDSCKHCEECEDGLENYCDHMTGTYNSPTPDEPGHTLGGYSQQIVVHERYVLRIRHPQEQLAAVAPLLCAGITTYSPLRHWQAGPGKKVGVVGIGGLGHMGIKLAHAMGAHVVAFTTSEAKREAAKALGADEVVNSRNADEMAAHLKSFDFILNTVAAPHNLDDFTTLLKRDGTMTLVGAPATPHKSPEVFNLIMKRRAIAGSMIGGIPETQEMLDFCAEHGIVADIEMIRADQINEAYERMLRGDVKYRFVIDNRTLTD
UniProt P46855: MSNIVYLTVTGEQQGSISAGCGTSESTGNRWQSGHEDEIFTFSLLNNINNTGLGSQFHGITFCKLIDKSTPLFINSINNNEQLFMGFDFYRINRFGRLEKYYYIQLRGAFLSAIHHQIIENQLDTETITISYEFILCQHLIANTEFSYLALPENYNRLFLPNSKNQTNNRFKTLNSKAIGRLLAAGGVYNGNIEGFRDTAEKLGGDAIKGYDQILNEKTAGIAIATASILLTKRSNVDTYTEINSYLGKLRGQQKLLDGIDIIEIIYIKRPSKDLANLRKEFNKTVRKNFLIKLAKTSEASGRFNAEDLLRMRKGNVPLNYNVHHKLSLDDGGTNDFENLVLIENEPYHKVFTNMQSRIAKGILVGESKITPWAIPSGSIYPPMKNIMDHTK
UniProt P75746: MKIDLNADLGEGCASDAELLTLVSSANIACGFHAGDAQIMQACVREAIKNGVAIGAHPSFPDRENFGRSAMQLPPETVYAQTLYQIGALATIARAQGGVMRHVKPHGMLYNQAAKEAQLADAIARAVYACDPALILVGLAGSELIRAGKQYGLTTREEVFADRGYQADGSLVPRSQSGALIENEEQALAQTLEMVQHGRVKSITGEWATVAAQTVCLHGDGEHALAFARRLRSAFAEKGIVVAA
UniProt P71242: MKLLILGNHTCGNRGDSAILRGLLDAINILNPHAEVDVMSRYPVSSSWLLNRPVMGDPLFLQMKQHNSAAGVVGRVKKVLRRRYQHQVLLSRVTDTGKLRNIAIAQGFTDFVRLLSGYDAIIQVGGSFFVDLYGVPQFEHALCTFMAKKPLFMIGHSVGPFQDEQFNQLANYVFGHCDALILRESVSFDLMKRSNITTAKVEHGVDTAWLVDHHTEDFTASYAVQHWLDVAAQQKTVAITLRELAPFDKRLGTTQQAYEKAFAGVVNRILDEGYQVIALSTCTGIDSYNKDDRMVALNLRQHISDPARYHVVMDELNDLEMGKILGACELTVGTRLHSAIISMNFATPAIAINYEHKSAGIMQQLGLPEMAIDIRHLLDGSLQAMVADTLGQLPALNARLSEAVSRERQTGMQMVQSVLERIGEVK
UniProt P46888: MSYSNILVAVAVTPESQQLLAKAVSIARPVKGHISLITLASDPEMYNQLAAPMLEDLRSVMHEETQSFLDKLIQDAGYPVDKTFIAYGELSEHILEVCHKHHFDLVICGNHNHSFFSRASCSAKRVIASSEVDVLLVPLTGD
UniProt P52130: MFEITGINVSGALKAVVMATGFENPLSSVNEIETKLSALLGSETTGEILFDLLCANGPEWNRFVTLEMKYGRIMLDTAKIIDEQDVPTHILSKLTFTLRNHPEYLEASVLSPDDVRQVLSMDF
UniProt P75821: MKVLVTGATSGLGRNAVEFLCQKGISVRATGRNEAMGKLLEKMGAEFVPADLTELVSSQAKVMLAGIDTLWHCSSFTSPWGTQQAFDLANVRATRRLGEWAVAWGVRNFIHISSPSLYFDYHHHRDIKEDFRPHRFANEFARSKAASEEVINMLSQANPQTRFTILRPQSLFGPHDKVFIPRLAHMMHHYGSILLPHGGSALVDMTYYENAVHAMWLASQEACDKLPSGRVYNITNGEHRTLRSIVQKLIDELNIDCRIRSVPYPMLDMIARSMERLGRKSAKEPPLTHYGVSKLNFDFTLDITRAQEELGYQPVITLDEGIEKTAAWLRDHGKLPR
UniProt P46068: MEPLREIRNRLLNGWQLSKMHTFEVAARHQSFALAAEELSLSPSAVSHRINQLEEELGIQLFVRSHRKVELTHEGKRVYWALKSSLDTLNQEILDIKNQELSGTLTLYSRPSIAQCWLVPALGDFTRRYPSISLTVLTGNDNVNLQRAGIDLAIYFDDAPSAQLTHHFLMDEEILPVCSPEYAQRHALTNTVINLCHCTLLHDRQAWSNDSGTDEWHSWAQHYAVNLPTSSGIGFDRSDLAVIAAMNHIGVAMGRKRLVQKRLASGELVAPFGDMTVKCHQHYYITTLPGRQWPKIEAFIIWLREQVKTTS
UniProt P56258: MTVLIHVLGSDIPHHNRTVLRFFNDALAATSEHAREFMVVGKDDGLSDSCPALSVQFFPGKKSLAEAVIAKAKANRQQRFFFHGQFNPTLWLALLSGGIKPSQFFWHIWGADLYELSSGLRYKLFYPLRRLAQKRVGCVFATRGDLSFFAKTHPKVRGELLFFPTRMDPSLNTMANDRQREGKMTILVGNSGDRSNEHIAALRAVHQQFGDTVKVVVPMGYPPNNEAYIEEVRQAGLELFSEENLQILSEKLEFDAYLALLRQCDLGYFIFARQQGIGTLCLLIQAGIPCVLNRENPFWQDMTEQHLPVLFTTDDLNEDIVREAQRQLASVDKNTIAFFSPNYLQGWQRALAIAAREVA
UniProt P46854: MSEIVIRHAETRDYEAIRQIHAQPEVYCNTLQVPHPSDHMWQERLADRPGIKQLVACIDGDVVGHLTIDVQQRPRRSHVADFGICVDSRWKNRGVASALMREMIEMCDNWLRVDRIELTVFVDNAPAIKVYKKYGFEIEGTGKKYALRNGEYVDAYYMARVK
UniProt P64636: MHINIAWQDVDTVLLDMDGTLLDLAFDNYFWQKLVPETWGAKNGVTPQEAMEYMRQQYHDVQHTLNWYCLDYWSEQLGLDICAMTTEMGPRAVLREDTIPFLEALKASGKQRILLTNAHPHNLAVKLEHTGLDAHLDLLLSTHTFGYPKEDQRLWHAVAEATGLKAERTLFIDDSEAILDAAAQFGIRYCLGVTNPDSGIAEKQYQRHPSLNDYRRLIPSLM
UniProt P75801: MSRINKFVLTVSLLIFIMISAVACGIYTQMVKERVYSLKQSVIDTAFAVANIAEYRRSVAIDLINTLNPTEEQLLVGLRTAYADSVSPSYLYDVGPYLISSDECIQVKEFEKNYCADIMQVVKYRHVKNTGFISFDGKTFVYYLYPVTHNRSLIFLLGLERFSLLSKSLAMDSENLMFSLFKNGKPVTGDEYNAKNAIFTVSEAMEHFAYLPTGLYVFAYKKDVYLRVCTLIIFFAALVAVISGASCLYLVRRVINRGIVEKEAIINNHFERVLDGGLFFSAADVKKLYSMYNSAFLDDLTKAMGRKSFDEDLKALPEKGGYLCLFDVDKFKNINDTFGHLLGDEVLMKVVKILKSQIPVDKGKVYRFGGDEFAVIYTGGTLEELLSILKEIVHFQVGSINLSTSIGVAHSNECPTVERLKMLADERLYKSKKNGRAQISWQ
UniProt P69829: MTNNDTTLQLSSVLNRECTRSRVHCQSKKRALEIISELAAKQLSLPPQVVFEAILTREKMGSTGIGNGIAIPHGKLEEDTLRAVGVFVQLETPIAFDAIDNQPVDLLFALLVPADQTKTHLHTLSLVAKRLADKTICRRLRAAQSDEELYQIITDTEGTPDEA
UniProt P46139: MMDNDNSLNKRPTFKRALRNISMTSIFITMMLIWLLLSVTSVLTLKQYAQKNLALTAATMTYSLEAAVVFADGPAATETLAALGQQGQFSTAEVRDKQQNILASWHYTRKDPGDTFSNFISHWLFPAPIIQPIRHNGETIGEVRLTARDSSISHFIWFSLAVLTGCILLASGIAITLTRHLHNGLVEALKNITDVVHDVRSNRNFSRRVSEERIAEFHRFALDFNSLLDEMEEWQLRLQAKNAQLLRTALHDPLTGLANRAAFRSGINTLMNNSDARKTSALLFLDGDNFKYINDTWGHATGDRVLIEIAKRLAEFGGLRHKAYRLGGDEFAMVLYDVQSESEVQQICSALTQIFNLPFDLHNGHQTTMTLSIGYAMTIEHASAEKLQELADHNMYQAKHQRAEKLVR
UniProt P75764: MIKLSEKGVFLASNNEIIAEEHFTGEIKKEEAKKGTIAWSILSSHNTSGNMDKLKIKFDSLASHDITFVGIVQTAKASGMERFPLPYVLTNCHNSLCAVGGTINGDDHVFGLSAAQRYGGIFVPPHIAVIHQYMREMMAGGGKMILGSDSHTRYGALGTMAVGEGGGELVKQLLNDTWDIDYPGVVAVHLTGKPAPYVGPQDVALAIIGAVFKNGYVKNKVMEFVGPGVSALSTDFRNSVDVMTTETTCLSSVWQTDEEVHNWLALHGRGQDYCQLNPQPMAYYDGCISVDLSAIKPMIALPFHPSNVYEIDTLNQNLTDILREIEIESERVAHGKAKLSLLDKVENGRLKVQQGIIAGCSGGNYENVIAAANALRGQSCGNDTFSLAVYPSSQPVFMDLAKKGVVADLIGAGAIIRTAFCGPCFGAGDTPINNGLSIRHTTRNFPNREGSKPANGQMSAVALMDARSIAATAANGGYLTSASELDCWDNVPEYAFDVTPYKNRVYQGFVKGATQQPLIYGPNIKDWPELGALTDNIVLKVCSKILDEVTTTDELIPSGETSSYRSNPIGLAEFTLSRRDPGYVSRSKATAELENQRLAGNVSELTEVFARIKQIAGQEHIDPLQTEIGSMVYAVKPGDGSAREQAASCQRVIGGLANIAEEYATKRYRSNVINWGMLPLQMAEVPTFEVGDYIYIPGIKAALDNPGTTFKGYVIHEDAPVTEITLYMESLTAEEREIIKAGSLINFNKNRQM

Compound: CC1(C)S[C@@H]2[C@H](NC(=O)[C@H](N)c3ccccc3)C(=O)N2[C@H]1C(=O)O [ampicillin]
Test: log2 fold change of tryptic peptide abundance, ligand vs vehicle (limited proteolysis) (log2 ratio); higher = more trypsin-susceptible (destabilized)
Settings: ligand concentration: 10 uM; sample: E. coli crude lysate

| Target | log2 fold change |
| --- | --- |
| UniProt P69423 (peptide sequence: NREEENDAEAESEKTEE, peptide start residue: 242) | -0.0424 |
| UniProt P64588 (peptide sequence: EQVEMIEER, peptide start residue: 140) | 0.143 |
| UniProt P46890 (peptide sequence: AEQHLAGQIFSGLTR, peptide start residue: 143) | 0.169 |
| UniProt P52101 (peptide sequence: AMIFEPFFQGSHQR, peptide start residue: 414) | -0.186 |
| UniProt P52097 (peptide sequence: EDASPCLR, peptide start residue: 287) | -0.285 |
| UniProt P75691 (peptide sequence: VGVVGIGGLGHMGIK, peptide start residue: 178) | -0.32 |
| UniProt P75797 (peptide sequence: LDSITWRPVADNNTR, peptide start residue: 215) | -0.283 |
| UniProt P46859 (peptide sequence: VSLIVCSALK, peptide start residue: 82) | 0.151 |
| UniProt P45955 (peptide sequence: VGVIMQDK, peptide start residue: 223) | 0.158 |
| UniProt P52126 (peptide sequence: SIDKFTHGNIK, peptide start residue: 416) | 0.805 |
| UniProt P63235 (peptide sequence: GHFFLHPR, peptide start residue: 490) | 0.342 |
| UniProt P46855 (peptide sequence: INRFGRLEK, peptide start residue: 92) | -0.226 |
| UniProt P52073 (peptide sequence: LEGGEGSVK, peptide start residue: 217) | -0.246 |
| UniProt P75746 (peptide sequence: EAQLADAIAR, peptide start residue: 116) | -0.114 |
| UniProt P71242 (peptide sequence: YQHQVLLSR, peptide start residue: 84) | 0.32 |
| UniProt P46888 (peptide sequence: SVMHEETQSFLDK, peptide start residue: 59) | -0.085 |
| UniProt P52130 (peptide sequence: IIDEQDVPTHILSK, peptide start residue: 80) | -0.33 |

2 entries from above, with each value named:
UniProt P75797 (peptide sequence: LDSITWRPVADNNTR, peptide start residue: 215)
  log2 fold change: -0.283
UniProt P46888 (peptide sequence: SVMHEETQSFLDK, peptide start residue: 59)
  log2 fold change: -0.085

The list goes on.

| Target | log2 fold change |
| --- | --- |
| UniProt P52106 (peptide sequence: TQAVSWANDNLRR, peptide start residue: 204) | -0.318 |
| UniProt P75821 (peptide sequence: NAVEFLCQK, peptide start residue: 15) | 0.164 |
| UniProt P46068 (peptide sequence: HALTNTVINLCHCTLLHDR, peptide start residue: 186) | 0.289 |
| UniProt P56258 (peptide sequence: MTILVGNSGDR, peptide start residue: 184) | -0.417 |
| UniProt P46854 (peptide sequence: LADRPGIK, peptide start residue: 45) | -0.296 |
| UniProt P75843 (peptide sequence: ASLEDIPATISR, peptide start residue: 29) | -0.353 |
| UniProt P64636 (peptide sequence: AVLREDTIPFLEALKASGK, peptide start residue: 92) | 0.195 |
| UniProt P75801 (peptide sequence: EAIINNHFER, peptide start residue: 263) | 0.32 |
| UniProt P75824 (peptide sequence: ELLAGVPDLASR, peptide start residue: 185) | -0.155 |
| UniProt P52007 (peptide sequence: RLGLNITPLTADHISLR, peptide start residue: 30) | 0.643 |
| UniProt P51981 (peptide sequence: GRYEMVNIK, peptide start residue: 239) | -1.08 |
| UniProt P75767 (peptide sequence: VVALGGGHGLGR, peptide start residue: 12) | 0.255 |
| UniProt P69829 (peptide sequence: MGSTGIGNGIAIPHGKLEEDTLR, peptide start residue: 60) | 0.299 |
| UniProt P46139 (peptide sequence: LQELADHNMYQAK, peptide start residue: 387) | 0.113 |
| UniProt P75764 (peptide sequence: EQAASCQR, peptide start residue: 644) | 0.566 |
| UniProt P75831 (peptide sequence: VKEGFDSAEAEQQLTR, peptide start residue: 476) | 0.132 |
